# Out of some 300,000 compounds screened, about 5,400 (1.8%) were called active. This list was built around the results that the source calls inconclusive (neither active nor inactive); the mix of calls is not that of the screen. The call rests on the fitted dose curve; tested in HEK293 cells. Where the call is inconclusive, the potency comes from a doubtful curve fit.
# Assay: qHTS for inhibitors of binding or entry into cells for Marburg Virus
# Settings: Marburg virus pseudotyped entry inhibition, cell reporter; activity change, negative = inhibition: at 37.8 µM (top of the series) unless noted
# On the % scale 0 is the no-effect control and ±100 the full control effect; potency means the concentration at half of the fitted maximal effect.
Structure (SMILES),Potency,"activity change, negative = inhibition"
CC1=CC(=O)C=C(C)C1=NOS(=O)(=O)c1ccccc1,"inconclusive: 7.94 µM [inhibitor, partial curve, poor fit]",
Cc1nc(SC(C(N)=O)c2ccccc2)c(C#N)c(C)c1C (stereo not given),"inconclusive: 1.41 µM [inhibitor, single point]",
CCCCCCCCCCn1c2c(c(=N)c3c1CCC3)CCC2,"inconclusive: 28.2 µM [inhibitor, single point]",
O=C(CSc1oc(-c2ccccc2)nc1S(=O)(=O)c1ccc(Br)cc1)NC1CCCCC1,"inconclusive: 1.26 µM [inhibitor, partial curve, poor fit]",
Cc1c(C(=O)NC2CCCCC2)oc2ccccc12,"inconclusive: 6.31 µM [activator, single point]",
CC(C)c1nnc(NC(=O)c2nc(S(=O)(=O)Cc3ccc(F)cc3)ncc2Cl)s1,"inconclusive: 35.5 µM [inhibitor, single point]",
CCOC(=O)c1c(C)[nH]c(C2=NNC(=NC(C)COC)SC2)c1C (stereo not given),"inconclusive: 4.47 µM [activator, single point]",
COC(=O)c1ccc2nc(NC(=O)CN3C(=O)CCC3=O)sc2c1,,inactive: 1.21%
O=C1c2ccccc2-c2nccnc21,,inactive: -6.34%
COc1ccc(CCNC(=O)c2ccc3c(c2)CCN3S(=O)(=O)c2ccc(Cl)cc2)cc1,"inconclusive: 14.1 µM [inhibitor, single point]",
COc1ccc(N2CCN(C3CCCN(Cc4ccc(F)cc4)C3)CC2)cc1 (stereo not given),"inconclusive: 35.5 µM [inhibitor, single point]",
COc1ccccc1NC(=O)CN1CCC(C(=O)c2ccc(F)cc2)CC1,,inactive: -3.3%
COc1ccc(-n2c3c(c(=O)[nH]c2=O)C(NC(C)=O)(C(F)(F)F)C(=O)N3)cc1 (stereo not given),"inconclusive: 12.6 µM [inhibitor, single point]",
COC(=O)C(Nc1ccccc1Cl)(c1cc(C)c(O)c(C)c1)C(F)(F)F (stereo not given),"inconclusive: 12.6 µM [inhibitor, single point]",
CCOc1ccccc1C1CC(=O)NC(C)=C1C(=O)OC1CCCCCC1 (stereo not given),"inconclusive: 35.5 µM [inhibitor, single point]",
CCOc1ccccc1-c1cc(C(=O)N/N=C/c2ccc3c(c2)OCO3)c2ccccc2n1,"inconclusive: 10 µM [inhibitor, partial curve, poor fit]",
O=C(Nc1ccc(F)cc1)Nc1nnc(COc2ccccc2F)s1,"inconclusive: 15.8 µM [inhibitor, single point]",
Cc1ccc(NC(=O)Cn2cc(S(=O)(=O)c3ccc(F)cc3)c(=O)c3cc4c(cc32)OCO4)cc1,"inconclusive: 35.5 µM [inhibitor, single point]",
C/C(=N\NC(=O)C1(C)CC1(Br)Br)c1cccc(NC(=O)c2ccc(C)o2)c1 (stereo not given),"inconclusive: 15.8 µM [inhibitor, partial curve, poor fit]",
COc1ccc(/C=C/C(=O)OC2CCCCC2CN(C)C)cc1 (stereo not given),"inconclusive: 11.2 µM [inhibitor, partial curve, poor fit]",

# Looked up above.
# C/C(=N\NC(=O)C1(C)CC1(Br)Br)c1cccc(NC(=O)c2ccc(C)o2)c1 (stereo not given) | Potency: inconclusive: 15.8 µM [inhibitor, partial curve, poor fit]
# COc1ccc(-n2c3c(c(=O)[nH]c2=O)C(NC(C)=O)(C(F)(F)F)C(=O)N3)cc1 (stereo not given) | Potency: inconclusive: 12.6 µM [inhibitor, single point]

# Remaining list, next part.

Structure (SMILES),Potency,"activity change, negative = inhibition"
O=C(NC1CCCCC1)C1CC=CCC1C(=O)OCC(Cl)=C(Cl)Cl (stereo not given),"inconclusive: 0.282 µM [activator, partial curve, poor fit]",
CC1=C(C(=O)Nc2ccccc2)C(c2ccncc2)n2nnnc2N1 (stereo not given),"inconclusive: 32.6 µM [inhibitor, partial curve, poor fit]",
O=C(COc1ncnc2ccccc12)c1ccc2c(c1)OCCO2,"inconclusive: 10 µM [inhibitor, partial curve]",
Cc1cc(C)c(C)c(S(=O)(=O)N2CCC(C(=O)N3CCN(c4ccc(F)cc4)CC3)CC2)c1C,"inconclusive: 35.5 µM [inhibitor, single point]",
Brc1csc(C=Nc2ccc3c(c2)OCCOCCOCCOCCO3)c1,"inconclusive: 35.5 µM [inhibitor, single point]",
O=C(Nc1cccc(O)c1)c1cc(-c2ccco2)on1,,inactive: -3.22%
Cc1ccc(-c2cc(C(=O)NCc3ccccn3)c3ccccc3n2)cc1C,"inconclusive: 28.2 µM [inhibitor, single point]",
O=C(Nc1cc(S(=O)(=O)Nc2ccc(Cl)cc2)ccc1O)c1ccc(S(=O)(=O)N2CCCCCC2)cc1,"inconclusive: 35.5 µM [inhibitor, single point]",
Cc1nn(C)c(C)c1Sc1ccccc1N,"inconclusive: 2.51 µM [inhibitor, full curve]",
CC(C)Cn1c(SCC(=O)N2CC(=O)Nc3ccccc32)nc2ccccc21,"inconclusive: 0.112 µM [inhibitor, full curve, poor fit]",
CCCn1c(NC(=O)c2ccccc2Br)nc2ccccc21,"inconclusive: 28.2 µM [inhibitor, single point]",
COc1ccc(C=O)cc1COc1ccccc1F,"inconclusive: 5.62 µM [inhibitor, single point]",
O=C(Nc1cc2nn(-c3ccccc3)nc2cc1Cl)c1ccco1,"inconclusive: 2.24 µM [activator, partial curve, poor fit]",
COC(=O)Cc1ccc(NC(=O)c2ccc(Br)o2)cc1,,inactive: -9.65%
O=C(COC(=O)Cn1ccc(=O)[nH]c1=O)Nc1ccc(F)cc1,"inconclusive: 1.12 µM [activator, single point]",
Cc1ccc(S(=O)(=O)N(CC(=O)N/N=C/c2ccc(F)cc2)c2cccc3cccnc23)cc1,"inconclusive: 29.1 µM [inhibitor, single point]",
Cc1cc(C(=O)Cn2ncc(Cl)c(Cl)c2=O)c(C)n1CC(F)(F)F,"inconclusive: 14.1 µM [inhibitor, single point]",
CCOC(=O)c1c(Nc2cccc(O)c2)nnc(-c2ccccc2)c1-c1ccccc1,,inactive: -18.1% [at 46.1 µM]
COc1ccc(-c2c(NC(=O)c3ccco3)n(C)c3ccccc3c2=O)cc1,"inconclusive: 29.1 µM [activator, single point]",
O=C(NCc1ccc(F)cc1)c1ccc(CSc2nc3ccncc3n2Cc2ccc(F)cc2)cc1,"inconclusive: 28.2 µM [inhibitor, single point]",
